Laboratory results taken from the supplement of paper PMC4604168 (melanoma cell lines).
The list shows a part of the results. Single values are uncertain, as repeats are few or missing.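 The apoptosis fraction was the count of cleaved-PARP antibody-stained nuclei relative to all DNA-stained nuclei, imaged in 1,536-well plates. Screening doses were set so most cells survived, and baseline and induced cleaved-PARP levels vary greatly across cell lines.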

Experiments:
Experiment in all cases: cleaved PARP positive nuclei fraction relative to DMSO control; melanoma cells; higher = more apoptosis
Settings in all cases: library dose: low library concentration; 72 h
501Mel = test system: 501Mel
A101D = test system: A101D
A2058 = test system: A2058
C32 = test system: C32
CBRC008 = test system: CBRC008 (line from a melanoma biopsy)
CBRC014 = test system: CBRC014 (line from a melanoma biopsy)
CBRC016 = test system: CBRC016 (line from a melanoma biopsy)
CBRC017 = test system: CBRC017 (line from a melanoma biopsy)
COLO792 = test system: COLO792
COLO800 = test system: COLO800
COLO829 = test system: COLO829
G361 = test system: G361
IPC-298 = test system: IPC-298
IST-MEL1 = test system: IST-MEL1
LB2518-MEL = test system: LB2518-MEL
LOXIMVI = test system: LOXIMVI
A375 = test system: A375
CBRC013 = test system: CBRC013 (line from a melanoma biopsy)
CBRC034 = test system: CBRC034 (line from a melanoma biopsy)

Row | SMILES | cleaved PARP positive nuclei fraction (501Mel) | cleaved PARP positive nuclei fraction (A101D) | cleaved PARP positive nuclei fraction (A2058) | cleaved PARP positive nuclei fraction (C32) | cleaved PARP positive nuclei fraction (CBRC008) | cleaved PARP positive nuclei fraction (CBRC014) | cleaved PARP positive nuclei fraction (CBRC016) | cleaved PARP positive nuclei fraction (CBRC017) | cleaved PARP positive nuclei fraction (COLO792) | cleaved PARP positive nuclei fraction (COLO800) | cleaved PARP positive nuclei fraction (COLO829) | cleaved PARP positive nuclei fraction (G361) | cleaved PARP positive nuclei fraction (IPC-298) | cleaved PARP positive nuclei fraction (IST-MEL1) | cleaved PARP positive nuclei fraction (LB2518-MEL) | cleaved PARP positive nuclei fraction (LOXIMVI) | cleaved PARP positive nuclei fraction (A375) | cleaved PARP positive nuclei fraction (CBRC013) | cleaved PARP positive nuclei fraction (CBRC034)
1 | Clc1ccc(Nc2nnc(Cc3ccncc3)c3ccccc23)cc1 [vatalanib] + CCCCCCCCCCCC1=C(O)C(=O)C=C(O)C1=O [Embelin] (first compound 2 µM, partner dose 1.2 µM) | 78.2% | 62.8% | 70.7% | 44.1% | 93.4% | 119% | 62.5% | 94.6% | 51.6% | 128% | 125% | 69.4% | 83.2% | 140% | 70.2% | 129% |  |  | 
2 | Cn1c(Nc2ccc(C(F)(F)F)cc2)nc2cc(Oc3ccnc(-c4ncc(C(F)(F)F)[nH]4)c3)ccc21 + O=S(=O)(c1ccccc1)N(CC(F)(F)F)c1ccc(C(O)(C(F)(F)F)C(F)(F)F)cc1 [T0901317] (first compound 0.08 µM, partner dose 1.4 µM) | 169% | 110% | 825% | 46.7% |  | 104% | 131% | 122% | 452% | 139% | 89.6% | 162% | 155% | 90.2% | 200% | 35.6% | 384% | 413% | 105%
3 | COCC[n+]1c2c(n(Cc3cnccn3)c1C)C(=O)c1ccccc1C2=O + COc1ccc2c(c1)CCC1C2CCC2(C)C(NCCCCCCN3C(=O)C=CC3=O)CCC12 [U73122] (first compound 0.0004 µM, partner dose 0.4 µM) | 68.8% | 68.3% | 72.4% | 111% |  | 120% | 140% | 44.4% | 104% | 19.9% | 58.4% | 51.7% | 51.4% | 35.1% | 44.2% | 93.4% | 170% | 19.4% | 86.8%
4 | O=C(CCCCCCC(=O)Nc1ccccc1)NO [vorinostat] + COc1ccc(-c2ccc3c(N4CCOCC4)nc(N4C[C@@H](C)O[C@@H](C)C4)nc3n2)cc1CO [KU0063794] (first compound 0.08 µM, partner dose 0.02 µM) | 82.9% | 130% | 107% | 114% |  | 97.4% | 101% | 85.8% | 108% | 83.9% | 210% | 95.4% | 173% | 112% | 80.2% | 51.5% | 52.7% | 125% | 65.8%
5 | C#Cc1cccc(Nc2ncnc3cc(OCCOC)c(OCCOC)cc23)c1 [erlotinib] + CC(C)CCN1c2nc(Nc3cc(F)c(O)c(F)c3)ncc2N(C)C(=O)C1C [BID1870] (first compound 0.8 µM, partner dose 0.2 µM) | 187% | 99.1% | 78.8% | 62.3% |  | 93.4% | 127% | 130% | 81.1% | 78.7% | 67.9% | 216% | 86.2% | 41.5% | 78% | 76.3% | 297% | 421% | 138%
6 | O=C(CCCCCCC(=O)Nc1ccccc1)NO [vorinostat] + O=S(=O)(c1ccccc1)N(CC(F)(F)F)c1ccc(C(O)(C(F)(F)F)C(F)(F)F)cc1 [T0901317] (first compound 0.08 µM, partner dose 1.4 µM) | 69.2% | 36.2% | 77% | 63.4% |  | 116% | 137% | 96.1% | 121% | 16.8% | 102% | 157% | 39.1% | 127% | 81% | 109% | 69.8% | 90.6% | 44.5%
7 | Cn1cncc1[C@@](N)(c1ccc(Cl)cc1)c1ccc2c(c1)c(-c1cccc(Cl)c1)cc(=O)n2C [tipifarnib] + COc1ccc2c(c1)CCC1C2CCC2(C)C(NCCCCCCN3C(=O)C=CC3=O)CCC12 [U73122] (first compound 0.01 µM, partner dose 0.4 µM) | 64.3% | 240% | 280% | 54.2% |  | 120% | 177% | 81.2% | 155% | 141% | 118% | 170% | 110% | 169% | 115% | 82.6% | 709% | 596% | 100%
8 | C#Cc1cccc(Nc2ncnc3cc(OCCOC)c(OCCOC)cc23)c1 [erlotinib] + COc1ccc(COc2ccc(Cc3cnc(N)nc3N)cc2OC)cc1 [GW2580] (first compound 0.8 µM, partner dose 1 µM) | 97.1% | 121% | 123% | 38.3% |  | 88.8% | 63.8% | 77% | 103% | 81.8% | 63.5% | 85.4% | 45% | 89.4% | 87.1% | 63.9% | 24.1% | 312% | 61.4%
9 | Cn1cncc1[C@@](N)(c1ccc(Cl)cc1)c1ccc2c(c1)c(-c1cccc(Cl)c1)cc(=O)n2C [tipifarnib] + c1cc(-c2cnn3cc(-c4ccc(OCCN5CCCCC5)cc4)cnc23)ccn1 [Dorsomorphin] (first compound 0.01 µM, partner dose 0.4 µM) | 254% | 189% | 75.9% | 131% |  | 94.1% | 55.9% | 167% | 210% | 124% | 137% | 198% | 117% | 89.8% | 97.1% | 616% | 140% | 56.4% | 92.7%
10 | Cc1nc(Nc2ncc(C(=O)Nc3c(C)cccc3Cl)s2)cc(N2CCN(CCO)CC2)n1 [dasatanib] + CCc1ccc(CCOc2ccc(CC3SC(=O)NC3=O)cc2)nc1 [pioglitazone] (first compound 0.004 µM, partner dose 2 µM) | 84.6% | 128% | 157% | 131% |  | 96.2% | 79% | 90.3% | 187% | 161% | 55.9% | 106% | 43.9% | 144% | 87.8% | 193% | 84.1% | 224% | 148%
11 | Cc1nc(Nc2ncc(C(=O)Nc3c(C)cccc3Cl)s2)cc(N2CCN(CCO)CC2)n1 [dasatanib] + O=c1cc(-c2cccc3c2Sc2ccccc2S3)oc(N2CCOCC2)c1 [KU55933] (first compound 0.004 µM, partner dose 1 µM) | 174% | 67.1% | 94.5% | 305% |  | 96.5% | 143% | 110% | 153% | 236% | 37.6% | 147% | 366% | 131% | 78.5% | 60.8% | 122% | 50.3% | 132%
12 | Cn1c(Nc2ccc(C(F)(F)F)cc2)nc2cc(Oc3ccnc(-c4ncc(C(F)(F)F)[nH]4)c3)ccc21 + Oc1nc(-c2ccc(C(F)(F)F)cc2)nc2c1CSCC2 [XAV939] (first compound 0.08 µM, partner dose 2 µM) | 60.4% | 406% | 164% | 73.9% |  | 102% | 49.3% | 46.1% | 684% | 93.1% | 118% | 136% | 162% | 50.5% | 537% | 98.4% | 268% | 285% | 129%
13 | OCc1c[nH]c2ccccc12 [Indole-3-carbinol] + Oc1nc(-c2ccc(C(F)(F)F)cc2)nc2c1CSCC2 [XAV939] (first compound 0.8 µM, partner dose 2 µM) | 58.1% | 21.9% | 184% | 123% | 51.9% | 84.4% | 97.5% | 68% | 63.9% | 51.5% | 63% | 57.1% | 46.5% | 183% | 145% | 162% |  |  | 
14 | C[C@@H]1CCN(C(=O)CC#N)C[C@@H]1N(C)c1ncnc2[nH]ccc12 + COc1cc(N2CCC(N3CCN(C)CC3)CC2)ccc1Nc1ncc(Cl)c(Nc2ccccc2S(=O)(=O)C(C)C)n1 [NVP-TAE684] (first compound 1 µM, partner dose 0.08 µM) | 89.4% | 150% | 263% | 118% |  | 95.3% | 69.2% | 78.3% | 112% | 84.8% | 117% | 143% | 26.8% | 27.9% | 71.3% | 40.7% | 228% | 193% | 89.2%
15 | CC(=O)c1c(C)c2cnc(Nc3ccc(N4CCNCC4)cn3)nc2n(C2CCCC2)c1=O [palbociclib] + Oc1nc(-c2ccc(C(F)(F)F)cc2)nc2c1CSCC2 [XAV939] (first compound 0.04 µM, partner dose 2 µM) | 185% | 41.3% | 40.7% | 100% | 230% | 115% | 103% | 90.2% | 159% | 77.4% | 52.6% | 47.9% | 53.4% | 180% | 98.6% | 77% |  |  | 
16 | C#Cc1cccc(Nc2ncnc3cc(OCCOC)c(OCCOC)cc23)c1 [erlotinib] + COc1cc(N2CCC(N3CCN(C)CC3)CC2)ccc1Nc1ncc(Cl)c(Nc2ccccc2S(=O)(=O)C(C)C)n1 [NVP-TAE684] (first compound 0.8 µM, partner dose 0.08 µM) | 102% | 122% | 89.3% | 235% |  | 74.3% | 50.6% | 185% | 125% | 103% | 86% | 48.3% | 88.8% | 41% | 79.4% | 69.7% | 355% | 141% | 83.8%
17 | C=CCn1c(=O)c2cnc(Nc3ccc(N4CCN(C)CC4)cc3)nc2n1-c1cccc(C(C)(C)O)n1 + O=C(Nc1ccccc1)c1cc([N+](=O)[O-])ccc1Cl [GW9662] (first compound 0.02 µM, partner dose 2 µM) | 74.6% | 179% | 154% | 142% |  | 104% | 68.9% | 94.6% | 105% | 112% | 69.9% | 37.4% | 171% | 55.9% | 152% | 24.1% | 312% | 457% | 143%
18 | CC(C)(C)c1cnc(CSc2cnc(NC(=O)C3CCNCC3)s2)o1 + COc1cc(N2CCC(N3CCN(C)CC3)CC2)ccc1Nc1ncc(Cl)c(Nc2ccccc2S(=O)(=O)C(C)C)n1 [NVP-TAE684] (first compound 0.01 µM, partner dose 0.08 µM) | 158% | 57.1% | 96.1% | 135% |  | 111% | 48.3% | 93.3% | 101% | 196% | 156% | 96.9% | 87.9% | 90.1% | 86.4% | 33.4% | 137% | 139% | 104%

Two entries from above, set out differently:
Row,SMILES,cleaved PARP positive nuclei fraction (501Mel),cleaved PARP positive nuclei fraction (A101D),cleaved PARP positive nuclei fraction (A2058),cleaved PARP positive nuclei fraction (C32),cleaved PARP positive nuclei fraction (CBRC008),cleaved PARP positive nuclei fraction (CBRC014),cleaved PARP positive nuclei fraction (CBRC016),cleaved PARP positive nuclei fraction (CBRC017),cleaved PARP positive nuclei fraction (COLO792),cleaved PARP positive nuclei fraction (COLO800),cleaved PARP positive nuclei fraction (COLO829),cleaved PARP positive nuclei fraction (G361),cleaved PARP positive nuclei fraction (IPC-298),cleaved PARP positive nuclei fraction (IST-MEL1),cleaved PARP positive nuclei fraction (LB2518-MEL),cleaved PARP positive nuclei fraction (LOXIMVI),cleaved PARP positive nuclei fraction (A375),cleaved PARP positive nuclei fraction (CBRC013),cleaved PARP positive nuclei fraction (CBRC034)
13,"OCc1c[nH]c2ccccc12 [Indole-3-carbinol] + Oc1nc(-c2ccc(C(F)(F)F)cc2)nc2c1CSCC2 [XAV939] (first compound 0.8 µM, partner dose 2 µM)",58.1%,21.9%,184%,123%,51.9%,84.4%,97.5%,68%,63.9%,51.5%,63%,57.1%,46.5%,183%,145%,162%,,,
14,"C[C@@H]1CCN(C(=O)CC#N)C[C@@H]1N(C)c1ncnc2[nH]ccc12 + COc1cc(N2CCC(N3CCN(C)CC3)CC2)ccc1Nc1ncc(Cl)c(Nc2ccccc2S(=O)(=O)C(C)C)n1 [NVP-TAE684] (first compound 1 µM, partner dose 0.08 µM)",89.4%,150%,263%,118%,,95.3%,69.2%,78.3%,112%,84.8%,117%,143%,26.8%,27.9%,71.3%,40.7%,228%,193%,89.2%
